Consider 2 substances from PMC6775688.

Sequences of proteins named here, by UniProt entry; tags and fusion partners are left off. Residues count along the entry.
UniProt P25311, residues 21-298: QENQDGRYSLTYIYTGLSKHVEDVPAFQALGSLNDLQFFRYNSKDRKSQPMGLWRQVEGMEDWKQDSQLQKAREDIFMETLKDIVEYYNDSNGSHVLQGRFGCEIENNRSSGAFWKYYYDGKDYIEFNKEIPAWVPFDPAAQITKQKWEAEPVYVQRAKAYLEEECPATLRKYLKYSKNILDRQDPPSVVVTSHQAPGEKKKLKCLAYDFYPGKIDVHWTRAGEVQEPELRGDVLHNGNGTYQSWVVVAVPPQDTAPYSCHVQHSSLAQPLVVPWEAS
UniProt P21333: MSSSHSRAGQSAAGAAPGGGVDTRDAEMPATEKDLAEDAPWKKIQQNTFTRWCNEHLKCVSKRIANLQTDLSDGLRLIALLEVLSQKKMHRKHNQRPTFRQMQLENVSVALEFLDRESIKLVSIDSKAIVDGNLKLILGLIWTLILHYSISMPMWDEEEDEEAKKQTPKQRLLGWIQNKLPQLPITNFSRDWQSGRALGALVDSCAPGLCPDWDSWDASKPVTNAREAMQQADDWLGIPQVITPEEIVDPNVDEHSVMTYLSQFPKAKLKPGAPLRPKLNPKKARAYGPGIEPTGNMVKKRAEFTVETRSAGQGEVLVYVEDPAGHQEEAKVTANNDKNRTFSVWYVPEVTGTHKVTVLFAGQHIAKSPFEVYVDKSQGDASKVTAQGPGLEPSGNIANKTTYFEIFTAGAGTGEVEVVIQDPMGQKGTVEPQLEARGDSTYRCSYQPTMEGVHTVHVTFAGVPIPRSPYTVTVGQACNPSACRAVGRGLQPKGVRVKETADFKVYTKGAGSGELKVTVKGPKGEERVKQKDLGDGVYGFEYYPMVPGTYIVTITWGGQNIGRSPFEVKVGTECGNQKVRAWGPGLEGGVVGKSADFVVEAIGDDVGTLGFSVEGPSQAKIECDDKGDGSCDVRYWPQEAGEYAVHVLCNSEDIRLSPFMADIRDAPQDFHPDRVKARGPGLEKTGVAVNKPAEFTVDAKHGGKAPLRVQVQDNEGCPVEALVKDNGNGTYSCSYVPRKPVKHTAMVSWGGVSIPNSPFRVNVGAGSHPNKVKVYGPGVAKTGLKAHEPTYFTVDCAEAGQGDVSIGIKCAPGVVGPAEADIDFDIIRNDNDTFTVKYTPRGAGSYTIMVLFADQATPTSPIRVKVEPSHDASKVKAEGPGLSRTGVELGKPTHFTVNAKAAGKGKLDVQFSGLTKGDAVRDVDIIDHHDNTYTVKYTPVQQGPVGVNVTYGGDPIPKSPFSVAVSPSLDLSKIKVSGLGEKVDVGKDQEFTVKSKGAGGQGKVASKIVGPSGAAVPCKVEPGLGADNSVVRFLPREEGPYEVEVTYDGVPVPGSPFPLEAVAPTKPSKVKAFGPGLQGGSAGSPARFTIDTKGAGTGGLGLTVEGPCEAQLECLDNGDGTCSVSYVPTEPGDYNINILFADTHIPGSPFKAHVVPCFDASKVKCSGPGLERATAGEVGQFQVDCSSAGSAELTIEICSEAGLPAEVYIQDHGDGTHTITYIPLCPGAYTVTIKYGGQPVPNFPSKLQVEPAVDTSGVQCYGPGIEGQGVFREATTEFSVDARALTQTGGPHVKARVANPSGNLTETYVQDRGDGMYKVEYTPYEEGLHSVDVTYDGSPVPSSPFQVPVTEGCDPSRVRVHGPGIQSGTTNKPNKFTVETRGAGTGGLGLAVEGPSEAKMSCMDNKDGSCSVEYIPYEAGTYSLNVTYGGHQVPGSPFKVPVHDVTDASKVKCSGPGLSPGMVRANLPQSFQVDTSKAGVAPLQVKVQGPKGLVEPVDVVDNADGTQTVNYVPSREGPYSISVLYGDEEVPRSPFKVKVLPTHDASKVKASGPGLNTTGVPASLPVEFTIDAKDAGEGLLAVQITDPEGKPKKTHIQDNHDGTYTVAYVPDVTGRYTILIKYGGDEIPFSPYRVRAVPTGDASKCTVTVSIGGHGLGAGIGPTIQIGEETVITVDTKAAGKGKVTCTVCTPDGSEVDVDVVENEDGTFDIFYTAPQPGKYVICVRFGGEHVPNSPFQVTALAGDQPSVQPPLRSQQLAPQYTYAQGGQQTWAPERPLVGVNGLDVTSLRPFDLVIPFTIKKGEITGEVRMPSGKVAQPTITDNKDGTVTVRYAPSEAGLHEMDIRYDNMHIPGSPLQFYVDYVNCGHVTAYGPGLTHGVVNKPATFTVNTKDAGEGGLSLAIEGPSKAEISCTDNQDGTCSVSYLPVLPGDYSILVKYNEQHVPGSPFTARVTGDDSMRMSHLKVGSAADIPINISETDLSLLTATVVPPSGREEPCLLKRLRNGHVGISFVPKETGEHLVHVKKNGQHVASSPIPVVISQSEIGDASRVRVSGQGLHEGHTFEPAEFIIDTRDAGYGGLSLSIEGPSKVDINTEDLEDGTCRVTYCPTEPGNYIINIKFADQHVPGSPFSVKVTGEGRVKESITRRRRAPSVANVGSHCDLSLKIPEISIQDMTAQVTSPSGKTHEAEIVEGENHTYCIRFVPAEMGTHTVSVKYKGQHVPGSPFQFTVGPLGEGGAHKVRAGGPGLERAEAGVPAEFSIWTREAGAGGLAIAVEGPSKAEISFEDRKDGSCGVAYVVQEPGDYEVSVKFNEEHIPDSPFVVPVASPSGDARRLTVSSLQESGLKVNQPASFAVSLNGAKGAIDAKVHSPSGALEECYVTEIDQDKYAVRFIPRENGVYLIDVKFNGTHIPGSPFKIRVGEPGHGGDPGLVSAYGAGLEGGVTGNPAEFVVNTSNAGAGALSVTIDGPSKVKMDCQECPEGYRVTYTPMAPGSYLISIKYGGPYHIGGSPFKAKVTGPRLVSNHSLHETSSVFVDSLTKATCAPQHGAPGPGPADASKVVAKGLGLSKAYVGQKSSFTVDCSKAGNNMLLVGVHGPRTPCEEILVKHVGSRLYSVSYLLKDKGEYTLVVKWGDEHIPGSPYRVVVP

The target of test [1] is Zinc-α2-glycoprotein 1 (AZGP1) (human (endogenous in HCT116 and SW480)) (UniProt P25311). Nature of the test: co-IP; HCT116 and SW480 cells, endogenous proteins; lysate in RIPA buffer, 5 µl antibody (AZGP1, Sigma) and protein-A agarose beads, 3 h rotation, Western blot. In general terms: In western blotting, separated proteins are transferred to a membrane and probed.
The target in test [2] is Zinc-α2-glycoprotein 1 (AZGP1), in HEK293 cells (human) (UniProt P25311). The test can be described thus: co-IP; HEK293 cells, exogenous proteins; lysate in RIPA buffer, 5 µl antibody (AZGP1, Sigma) and protein-A agarose beads, 3 h rotation, Western blot.

Results are given in words; binding and its absence hold for the method and conditions named. Binding seen in cells or lysates may run through a third protein. Some results given as binding are weak or reduced against the parent protein; the word gives no strength.

Consider “filamin A (FLNA) (from UniProt P21333 1-2647)”, for which, in test [1], the binding result was “binds”.
Regarding “filamin A (FLNA), exogenous, in HEK293 cells (from UniProt P21333 1-2647)”, the binding result in test [2] is “binds”.
